Source: PubChem BioAssay AID1259254 (NCATS, 2017)
Here is an unselected part of about 59,000 deposited reagents. About 1,550 of all reagents (2.6%) were called active. 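G2 share is only a proxy for re-replication; each gene was hit by three separate siRNAs, and active genes were retested.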 A number with no mark means an inactive call. Further read-outs or replicates are left out here. Not stated in the record: the amount of reagent.

- Assay: 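Genome-wide screen for genes that prevent DNA re-replication in cancer cells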 (primary screen)
- Cell system: human HCT116 colorectal cancer cells
- Reagent: single siRNA against human genes
- Time to read-out: 3 days
- Detection: 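Imaged Hoechst DNA stain sorts each cell into a cycle phase by DNA amount; per plate, G2 fraction set to 0% for non-targeting and 100% for GMNN siRNA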
- Reading the numbers: G2 robust z-score and G2 cells, % of GMNN control: higher = more G2 cells, more excess DNA replication
- Rule for the call: 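An siRNA counts as active if its G2 robust z-score lies at least 5 MADs above the screen median; here such calls match roughly 38% of GMNN control or more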

The opening 2 records as a preview:
target | PubChem SID | G2 robust z-score | G2 cells, % of GMNN control
LINC01465 (long independently transcribed non-coding RNA 1465) | SID160762896 | 0.733 | 8.13
LINC01465 (long independently transcribed non-coding RNA 1465) | SID160762897 | -0.373 | 0.341

Main list, repeating the preview:
target | PubChem SID | G2 robust z-score | G2 cells, % of GMNN control
LINC01465 (long independently transcribed non-coding RNA 1465) | SID160762896 | 0.733 | 8.13
LINC01465 (long independently transcribed non-coding RNA 1465) | SID160762897 | -0.373 | 0.341
LINC01465 (long independently transcribed non-coding RNA 1465) | SID160762898 | -0.645 | -1.57
BMPR2 (bone morphogenetic protein receptor type 2) | SID160728443 | 0.482 | 6.36
BMPR2 (bone morphogenetic protein receptor type 2) | SID160728454 | -1.26 | -5.91
BMPR2 (bone morphogenetic protein receptor type 2) | SID160728463 | -0.385 | 0.258
OR56A4 (olfactory receptor family 56 subfamily A member 4) | SID160732377 | 1.64 | 14.5
OR56A4 (olfactory receptor family 56 subfamily A member 4) | SID160732378 | -0.226 | 1.38
OR56A4 (olfactory receptor family 56 subfamily A member 4) | SID160755835 | -0.0117 | 2.88
SERPINC1 (serpin family C member 1) | SID160720973 | -1.16 | -5.21
SERPINC1 (serpin family C member 1) | SID160720983 | 0.215 | 4.48
SERPINC1 (serpin family C member 1) | SID160720992 | -1.18 | -5.31
MICAL3 | SID160772594 | -0.774 | -2.48
MICAL3 | SID160772595 | 0.731 | 8.11
MICAL3 | SID160772596 | 0.981 | 9.87
LRR1 (leucine rich repeat protein 1) | SID160730574 | 1.64 | 14.5
LRR1 (leucine rich repeat protein 1) | SID160756015 | 2.86 | 23.1
LRR1 (leucine rich repeat protein 1) | SID160756016 | -0.945 | -3.68
ZBED3-AS1 (ZBED3 antisense RNA 1) | SID160772071 | 2.3 | 19.2
ZBED3-AS1 (ZBED3 antisense RNA 1) | SID160772072 | 2.33 | 19.4
ZBED3-AS1 (ZBED3 antisense RNA 1) | SID160772073 | 0.43 | 6
NCAPD2 (non-SMC condensin I complex subunit D2) | SID160723436 | 2.19 | 18.4
NCAPD2 (non-SMC condensin I complex subunit D2) | SID160723437 | 0.77 | 8.38
NCAPD2 (non-SMC condensin I complex subunit D2) | SID160735259 | -0.688 | -1.87
SORT1 (sortilin 1) | SID160716278 | 0.221 | 4.52
SORT1 (sortilin 1) | SID160716279 | -0.497 | -0.526
SORT1 (sortilin 1) | SID160731677 | 0.166 | 4.14
OR52H1 (olfactory receptor family 52 subfamily H member 1) | SID160766360 | 0.951 | 9.66
OR52H1 (olfactory receptor family 52 subfamily H member 1) | SID160766361 | -0.727 | -2.15
OR52H1 (olfactory receptor family 52 subfamily H member 1) | SID160766363 | 1.93 | 16.6
DDX21 (DExD-box helicase 21) | SID160721681 | -0.205 | 1.53
DDX21 (DExD-box helicase 21) | SID160721682 | 2.07 | 17.6
DDX21 (DExD-box helicase 21) | SID160721683 | 2.28 | 19
ALMS1 (ALMS1 centrosome and basal body associated protein) | SID160719391 | 1.06 | 10.4
ALMS1 (ALMS1 centrosome and basal body associated protein) | SID160719392 | -0.384 | 0.265
ALMS1 (ALMS1 centrosome and basal body associated protein) | SID160719393 | -0.271 | 1.06
TCF21 (transcription factor 21) | SID160717830 | -0.79 | -2.59
TCF21 (transcription factor 21) | SID160717831 | 0.0926 | 3.62
TCF21 (transcription factor 21) | SID160731819 | -0.856 | -3.06
FGFR1OP2 (FGFR1 oncogene partner 2) | SID160737663 | 2.62 | 21.4
FGFR1OP2 (FGFR1 oncogene partner 2) | SID160737664 | -0.158 | 1.85
FGFR1OP2 (FGFR1 oncogene partner 2) | SID160737665 | 0.422 | 5.94
WDR41 (WD repeat domain 41) | SID160743359 | -0.646 | -1.58
WDR41 (WD repeat domain 41) | SID160743360 | 6.44 (active) | 48.3
WDR41 (WD repeat domain 41) | SID160743361 | 0.436 | 6.03
ID3 (inhibitor of DNA binding 3) | SID160775523 | 1.66 | 14.7
ID3 (inhibitor of DNA binding 3) | SID160775524 | -0.515 | -0.659
ID3 (inhibitor of DNA binding 3) | SID160775525 | 0.0795 | 3.53
TRIM64C (tripartite motif containing 64C) | SID160734006 | -0.297 | 0.878
TRIM64C (tripartite motif containing 64C) | SID160770001 | -0.993 | -4.02
TRIM64C (tripartite motif containing 64C) | SID160770002 | 2.97 | 23.9
FFAR4 (free fatty acid receptor 4) | SID160731098 | -1.03 | -4.29
FFAR4 (free fatty acid receptor 4) | SID160764035 | 0.648 | 7.52
FFAR4 (free fatty acid receptor 4) | SID160764036 | -0.854 | -3.04
COX7A2 (cytochrome c oxidase subunit 7A2) | SID160730602 | -0.991 | -4
COX7A2 (cytochrome c oxidase subunit 7A2) | SID160744138 | -0.708 | -2.01
COX7A2 (cytochrome c oxidase subunit 7A2) | SID160744243 | 1.51 | 13.6
SNTB1 (syntrophin beta 1) | SID160717153 | -0.106 | 2.22
SNTB1 (syntrophin beta 1) | SID160731773 | -0.623 | -1.42
SNTB1 (syntrophin beta 1) | SID160731774 | -0.43 | -0.0548
LYZ (lysozyme) | SID160776812 | -1.01 | -4.12
LYZ (lysozyme) | SID160776813 | -0.315 | 0.75
LYZ (lysozyme) | SID160776814 | 0.246 | 4.7
FBXW5 (F-box and WD repeat domain containing 5) | SID160733544 | 1.29 | 12.1
FBXW5 (F-box and WD repeat domain containing 5) | SID160741717 | -0.961 | -3.8
FBXW5 (F-box and WD repeat domain containing 5) | SID160741718 | 2.75 | 22.3
MTMR7 (myotubularin related protein 7) | SID160721485 | 1.08 | 10.5
MTMR7 (myotubularin related protein 7) | SID160721486 | -0.167 | 1.79
MTMR7 (myotubularin related protein 7) | SID160721487 | -0.101 | 2.26
H4C3 (H4 clustered histone 3) | SID160719909 | 0.271 | 4.87
H4C3 (H4 clustered histone 3) | SID160719911 | 1.5 | 13.5
H4C3 (H4 clustered histone 3) | SID160724167 | -0.492 | -0.494
MATN2 (matrilin 2) | SID160776994 | -0.179 | 1.71
MATN2 (matrilin 2) | SID160776995 | -0.0795 | 2.41
MATN2 (matrilin 2) | SID160776996 | -0.823 | -2.82
NALCN (sodium leak channel, non-selective) | SID160762590 | 1.96 | 16.7
NALCN (sodium leak channel, non-selective) | SID160762591 | -0.00463 | 2.93
NALCN (sodium leak channel, non-selective) | SID160762592 | -0.0479 | 2.63
PTPRF (protein tyrosine phosphatase receptor type F) | SID160715397 | 1.11 | 10.8
PTPRF (protein tyrosine phosphatase receptor type F) | SID160715398 | 1.39 | 12.7
PTPRF (protein tyrosine phosphatase receptor type F) | SID160715399 | -1.32 | -6.29
DUSP1 (dual specificity phosphatase 1) | SID160757089 | 2.4 | 19.8
DUSP1 (dual specificity phosphatase 1) | SID160757100 | 1.57 | 14
DUSP1 (dual specificity phosphatase 1) | SID160757111 | 0.477 | 6.33
PAIP2B (poly(A) binding protein interacting protein 2B) | SID160767108 | -0.873 | -3.18
PAIP2B (poly(A) binding protein interacting protein 2B) | SID160767109 | 0.344 | 5.38
PAIP2B (poly(A) binding protein interacting protein 2B) | SID160767111 | 0.0591 | 3.38
